Reference: the supplement of paper PMC12067093, “Discovery and optimisation of a covalent ligand for TRIM25 and its application to targeted protein ubiquitination” (Chemical Science, 2025)
This is one part of the list.

The chains behind the UniProt entries cited, without tags or fusion partners. Where a name states a change or a piece, a line headed by the entry shows the natural chain unless it says otherwise.
UniProt Q9BUK6: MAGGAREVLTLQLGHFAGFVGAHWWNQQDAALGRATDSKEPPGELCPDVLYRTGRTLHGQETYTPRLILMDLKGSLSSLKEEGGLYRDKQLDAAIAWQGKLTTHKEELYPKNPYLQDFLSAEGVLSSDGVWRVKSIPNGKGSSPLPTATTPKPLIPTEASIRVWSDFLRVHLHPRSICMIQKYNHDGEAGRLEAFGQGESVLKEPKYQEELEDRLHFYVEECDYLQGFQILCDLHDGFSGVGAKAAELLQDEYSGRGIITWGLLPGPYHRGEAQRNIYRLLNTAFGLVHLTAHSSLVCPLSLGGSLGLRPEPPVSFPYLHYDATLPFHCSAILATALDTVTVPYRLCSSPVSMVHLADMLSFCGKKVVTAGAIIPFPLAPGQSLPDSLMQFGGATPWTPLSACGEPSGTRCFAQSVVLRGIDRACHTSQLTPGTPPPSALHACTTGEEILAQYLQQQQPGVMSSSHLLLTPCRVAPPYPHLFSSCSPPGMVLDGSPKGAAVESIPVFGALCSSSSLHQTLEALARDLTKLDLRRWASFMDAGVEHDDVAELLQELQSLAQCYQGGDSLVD
UniProt P26038, whole entry: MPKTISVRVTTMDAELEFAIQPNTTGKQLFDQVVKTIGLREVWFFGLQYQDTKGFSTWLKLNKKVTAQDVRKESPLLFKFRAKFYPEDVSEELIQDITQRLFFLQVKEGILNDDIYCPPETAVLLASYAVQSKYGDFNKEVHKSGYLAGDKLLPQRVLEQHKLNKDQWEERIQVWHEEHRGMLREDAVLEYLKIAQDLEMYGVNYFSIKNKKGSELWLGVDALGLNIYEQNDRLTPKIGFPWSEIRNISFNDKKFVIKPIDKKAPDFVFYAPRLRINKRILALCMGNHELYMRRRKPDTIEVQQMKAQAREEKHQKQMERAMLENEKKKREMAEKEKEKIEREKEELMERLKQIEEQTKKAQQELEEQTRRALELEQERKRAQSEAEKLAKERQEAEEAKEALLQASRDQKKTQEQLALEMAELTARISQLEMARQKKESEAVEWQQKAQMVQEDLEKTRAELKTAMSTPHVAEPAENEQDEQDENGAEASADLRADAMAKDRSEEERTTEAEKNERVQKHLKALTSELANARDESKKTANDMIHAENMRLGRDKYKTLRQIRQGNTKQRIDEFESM
UniProt P20585: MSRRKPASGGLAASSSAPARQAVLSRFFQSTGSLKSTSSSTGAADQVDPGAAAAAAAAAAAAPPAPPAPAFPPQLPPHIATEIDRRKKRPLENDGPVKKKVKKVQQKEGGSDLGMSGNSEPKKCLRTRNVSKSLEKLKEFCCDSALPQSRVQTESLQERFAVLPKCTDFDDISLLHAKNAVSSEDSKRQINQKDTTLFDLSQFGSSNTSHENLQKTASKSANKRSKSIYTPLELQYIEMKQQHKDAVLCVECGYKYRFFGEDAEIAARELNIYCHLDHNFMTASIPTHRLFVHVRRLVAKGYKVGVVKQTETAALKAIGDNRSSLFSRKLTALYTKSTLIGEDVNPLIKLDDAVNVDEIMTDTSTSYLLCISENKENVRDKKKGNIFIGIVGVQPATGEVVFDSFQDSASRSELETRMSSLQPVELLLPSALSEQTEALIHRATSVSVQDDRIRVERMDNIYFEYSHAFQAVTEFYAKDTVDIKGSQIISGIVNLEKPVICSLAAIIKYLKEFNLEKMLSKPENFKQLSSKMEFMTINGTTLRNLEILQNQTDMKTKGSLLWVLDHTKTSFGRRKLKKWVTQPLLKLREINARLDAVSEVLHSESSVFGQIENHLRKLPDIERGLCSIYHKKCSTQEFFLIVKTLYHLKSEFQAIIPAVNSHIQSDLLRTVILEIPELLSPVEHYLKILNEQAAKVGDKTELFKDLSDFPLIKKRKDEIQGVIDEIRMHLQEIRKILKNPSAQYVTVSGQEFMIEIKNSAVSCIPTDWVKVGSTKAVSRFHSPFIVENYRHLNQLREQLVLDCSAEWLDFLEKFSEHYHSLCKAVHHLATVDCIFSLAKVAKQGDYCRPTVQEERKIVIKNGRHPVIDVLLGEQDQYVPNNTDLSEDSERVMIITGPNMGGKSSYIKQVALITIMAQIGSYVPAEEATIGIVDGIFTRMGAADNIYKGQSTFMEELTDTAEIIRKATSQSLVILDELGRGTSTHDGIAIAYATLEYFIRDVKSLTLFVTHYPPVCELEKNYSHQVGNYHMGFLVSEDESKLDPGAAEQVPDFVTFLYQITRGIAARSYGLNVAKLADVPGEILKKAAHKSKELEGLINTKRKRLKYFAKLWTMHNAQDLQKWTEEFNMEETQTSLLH
UniProt P43246, whole entry, looked up: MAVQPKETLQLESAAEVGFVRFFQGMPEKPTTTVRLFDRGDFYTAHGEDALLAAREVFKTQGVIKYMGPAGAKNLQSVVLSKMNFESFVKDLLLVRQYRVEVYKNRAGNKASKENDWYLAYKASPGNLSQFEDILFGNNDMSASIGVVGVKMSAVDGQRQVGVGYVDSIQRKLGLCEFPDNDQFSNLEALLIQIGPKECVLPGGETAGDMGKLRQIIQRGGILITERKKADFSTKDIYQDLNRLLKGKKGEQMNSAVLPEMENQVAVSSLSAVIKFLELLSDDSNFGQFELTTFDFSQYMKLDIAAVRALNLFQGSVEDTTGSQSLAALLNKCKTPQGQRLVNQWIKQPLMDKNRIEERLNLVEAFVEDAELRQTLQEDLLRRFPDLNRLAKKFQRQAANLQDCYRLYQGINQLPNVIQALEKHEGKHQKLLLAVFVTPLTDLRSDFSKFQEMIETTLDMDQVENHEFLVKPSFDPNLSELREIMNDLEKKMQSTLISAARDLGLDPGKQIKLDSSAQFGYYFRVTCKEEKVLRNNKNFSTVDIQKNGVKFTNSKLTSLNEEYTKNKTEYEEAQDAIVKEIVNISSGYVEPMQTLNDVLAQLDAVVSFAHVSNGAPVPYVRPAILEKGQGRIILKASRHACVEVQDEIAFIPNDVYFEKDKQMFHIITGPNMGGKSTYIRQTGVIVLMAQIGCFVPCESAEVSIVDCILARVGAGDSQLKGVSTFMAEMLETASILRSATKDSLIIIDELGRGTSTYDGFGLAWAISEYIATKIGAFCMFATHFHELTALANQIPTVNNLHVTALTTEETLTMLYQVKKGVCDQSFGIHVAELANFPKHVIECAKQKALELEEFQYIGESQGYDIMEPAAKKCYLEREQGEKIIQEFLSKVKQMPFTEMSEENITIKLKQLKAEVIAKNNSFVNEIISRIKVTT
UniProt P42285: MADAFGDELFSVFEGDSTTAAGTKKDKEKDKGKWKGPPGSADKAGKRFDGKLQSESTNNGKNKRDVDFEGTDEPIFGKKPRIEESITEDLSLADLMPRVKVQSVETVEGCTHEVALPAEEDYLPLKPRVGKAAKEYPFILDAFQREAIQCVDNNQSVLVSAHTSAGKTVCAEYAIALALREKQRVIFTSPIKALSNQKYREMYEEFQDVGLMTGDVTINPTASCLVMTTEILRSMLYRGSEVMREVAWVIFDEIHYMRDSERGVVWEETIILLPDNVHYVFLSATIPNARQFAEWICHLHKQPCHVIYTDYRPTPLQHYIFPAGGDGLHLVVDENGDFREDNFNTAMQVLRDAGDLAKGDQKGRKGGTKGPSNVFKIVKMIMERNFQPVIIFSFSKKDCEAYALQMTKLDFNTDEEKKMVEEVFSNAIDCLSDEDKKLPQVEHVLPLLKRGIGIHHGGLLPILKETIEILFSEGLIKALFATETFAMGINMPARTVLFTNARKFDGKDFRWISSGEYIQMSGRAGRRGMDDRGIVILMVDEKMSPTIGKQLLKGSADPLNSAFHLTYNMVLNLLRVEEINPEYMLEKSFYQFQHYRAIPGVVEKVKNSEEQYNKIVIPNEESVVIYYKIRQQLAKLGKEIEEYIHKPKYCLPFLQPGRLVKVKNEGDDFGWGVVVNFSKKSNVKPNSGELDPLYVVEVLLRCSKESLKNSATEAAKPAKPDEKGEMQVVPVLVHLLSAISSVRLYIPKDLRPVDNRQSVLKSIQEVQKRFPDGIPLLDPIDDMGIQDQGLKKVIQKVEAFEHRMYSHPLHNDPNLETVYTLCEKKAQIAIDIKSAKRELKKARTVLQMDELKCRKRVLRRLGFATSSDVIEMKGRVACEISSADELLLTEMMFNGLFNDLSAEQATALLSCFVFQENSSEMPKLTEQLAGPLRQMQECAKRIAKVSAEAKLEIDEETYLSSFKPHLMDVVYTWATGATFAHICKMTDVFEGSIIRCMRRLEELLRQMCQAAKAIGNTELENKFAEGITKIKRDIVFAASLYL
UniProt Q7Z6M4: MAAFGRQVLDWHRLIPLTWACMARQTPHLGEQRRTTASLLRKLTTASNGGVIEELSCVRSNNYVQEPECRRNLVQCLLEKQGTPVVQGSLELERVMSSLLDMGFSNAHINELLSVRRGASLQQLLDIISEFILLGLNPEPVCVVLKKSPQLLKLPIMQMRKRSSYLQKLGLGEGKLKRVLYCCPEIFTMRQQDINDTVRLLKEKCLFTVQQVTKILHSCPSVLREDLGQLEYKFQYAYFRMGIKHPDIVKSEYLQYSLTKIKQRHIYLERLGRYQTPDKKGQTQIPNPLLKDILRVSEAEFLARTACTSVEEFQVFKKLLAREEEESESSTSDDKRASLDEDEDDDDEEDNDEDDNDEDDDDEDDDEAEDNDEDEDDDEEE
UniProt Q13496: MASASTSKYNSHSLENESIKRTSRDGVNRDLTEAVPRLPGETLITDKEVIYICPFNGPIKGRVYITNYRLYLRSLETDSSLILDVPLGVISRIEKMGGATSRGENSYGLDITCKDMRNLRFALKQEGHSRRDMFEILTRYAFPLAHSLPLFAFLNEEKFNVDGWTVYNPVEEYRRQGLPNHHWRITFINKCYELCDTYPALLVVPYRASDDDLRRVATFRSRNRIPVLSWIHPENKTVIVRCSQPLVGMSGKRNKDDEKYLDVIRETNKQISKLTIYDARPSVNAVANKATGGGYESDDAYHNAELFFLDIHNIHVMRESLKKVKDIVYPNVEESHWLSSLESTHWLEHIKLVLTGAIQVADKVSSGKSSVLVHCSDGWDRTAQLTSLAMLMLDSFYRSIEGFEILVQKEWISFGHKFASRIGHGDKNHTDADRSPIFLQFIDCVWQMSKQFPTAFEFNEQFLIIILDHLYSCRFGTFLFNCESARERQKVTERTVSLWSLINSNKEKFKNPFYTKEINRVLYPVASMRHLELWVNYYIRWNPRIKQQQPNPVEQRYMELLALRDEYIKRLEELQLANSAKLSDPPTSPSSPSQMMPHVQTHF
UniProt Q6UB35, whole entry, looked up: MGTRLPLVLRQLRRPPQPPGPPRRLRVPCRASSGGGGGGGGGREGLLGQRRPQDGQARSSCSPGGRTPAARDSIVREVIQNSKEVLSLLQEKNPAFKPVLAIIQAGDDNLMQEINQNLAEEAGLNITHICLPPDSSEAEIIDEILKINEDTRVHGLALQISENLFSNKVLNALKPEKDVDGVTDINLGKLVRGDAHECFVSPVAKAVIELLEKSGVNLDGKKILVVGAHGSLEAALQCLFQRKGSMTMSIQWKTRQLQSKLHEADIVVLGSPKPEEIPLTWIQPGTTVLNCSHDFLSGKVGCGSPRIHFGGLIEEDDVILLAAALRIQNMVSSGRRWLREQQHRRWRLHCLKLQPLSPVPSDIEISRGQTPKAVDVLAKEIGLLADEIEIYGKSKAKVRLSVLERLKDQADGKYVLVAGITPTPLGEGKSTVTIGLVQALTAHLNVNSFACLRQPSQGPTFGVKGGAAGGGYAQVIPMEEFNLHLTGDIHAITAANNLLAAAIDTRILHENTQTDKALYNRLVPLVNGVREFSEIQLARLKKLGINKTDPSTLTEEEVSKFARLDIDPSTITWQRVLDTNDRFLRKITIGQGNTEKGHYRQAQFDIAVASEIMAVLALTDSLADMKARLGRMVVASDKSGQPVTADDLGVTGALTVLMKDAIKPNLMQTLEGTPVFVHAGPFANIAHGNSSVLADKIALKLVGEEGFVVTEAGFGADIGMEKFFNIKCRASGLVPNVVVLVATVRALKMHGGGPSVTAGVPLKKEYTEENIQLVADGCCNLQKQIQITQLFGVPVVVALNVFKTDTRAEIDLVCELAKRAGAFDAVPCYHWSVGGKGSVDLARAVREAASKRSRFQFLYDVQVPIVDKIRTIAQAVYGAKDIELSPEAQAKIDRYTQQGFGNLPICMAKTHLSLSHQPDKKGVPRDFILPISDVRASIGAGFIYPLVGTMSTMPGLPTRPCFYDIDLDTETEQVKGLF
UniProt Q99836, whole entry, looked up: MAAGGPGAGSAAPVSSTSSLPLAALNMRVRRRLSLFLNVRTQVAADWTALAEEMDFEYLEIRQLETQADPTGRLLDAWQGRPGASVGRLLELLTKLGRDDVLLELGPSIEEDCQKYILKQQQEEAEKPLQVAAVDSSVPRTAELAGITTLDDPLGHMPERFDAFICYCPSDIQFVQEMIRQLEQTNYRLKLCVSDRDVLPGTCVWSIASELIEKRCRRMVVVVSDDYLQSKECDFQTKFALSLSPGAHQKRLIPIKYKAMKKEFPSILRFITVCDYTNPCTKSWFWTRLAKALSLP

Compound: CC1Cc2ccccc2N1C(=O)C1CCCN(C1)C(=O)CCl (mixture of isomers) [TRIM25 ligand 11 (diastereomer mixture)]
Assay: probe-labelled cysteine peptide fold change vs DMSO (competition) (log2 fold change); higher = less target engagement (more negative = stronger competition)
Settings: THP-1, incubation time: 4 h
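Also: competitive chemoproteomic profiling in live THP-1 cells with an iodoacetamide desthiobiotin (IA-DTB) probe, comparing probe-labelled peptide intensities in compound-treated cells against DMSO-treated controls.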

Row | Target | probe-labelled cysteine peptide fold change (10 µM) | probe-labelled cysteine peptide fold change (50 µM)
1 | MSTO1_Q9BUK6_347_LCSSPVSMVHLADMLSFCGK (UniProt Q9BUK6) | 0.282 | 0.111
2 | MSN_P26038_117_EGILNDDIYCPPETAVLLASYAVQSK (UniProt P26038) | 0.106 | 0.0315
3 | MSH3_P20585_166_CTDFDDISLLHAK (UniProt P20585) | 0.0231 | -0.242
4 | MSH2_P43246_176_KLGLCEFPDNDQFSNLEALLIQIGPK (UniProt P43246) | -0.00362 | -0.105
5 | MYBL2_P10244_69_TDQQCQYR (UniProt P10244) | 0.0172 | 0.222
6 | MYCBP2_O75592_2569+2570_DINSCCPQEATMQEQDMPFLR (UniProt O75592) | 0.0437 | -0.504
7 | MTREX_P42285_399_KDCEAYALQMTK (UniProt P42285) | -0.044 | 0.0596
8 | MSH6_P52701_559_AYGVCFVDTSLGK (UniProt P52701) | 0.0341 | 0.091
9 | MTPAP_Q9NVV4_324_FSHQASGFQCDLTTNNR (UniProt Q9NVV4) | 0.592 | 0.896
10 | MTERF4_Q7Z6M4_219_ILHSCPSVLR (UniProt Q7Z6M4) | 0.23 | 0.163
11 | MTM1_Q13496_113_GENSYGLDITCK (UniProt Q13496) | -0.045 | -0.119
12 | MYBBP1A_Q9BQG0_968_AGTDPSHMPTGPQAASCLDLNLVTR (UniProt Q9BQG0) | -0.24 | -0.273
13 | MVD_P53602_12_PLAAVTCTAPVNIAVIK (UniProt P53602) | -0.0804 | -0.15
14 | MSTO1_Q9BUK6_411_CFAQSVVLR (UniProt Q9BUK6) | 0.0742 | 0.125
15 | MTHFD1L_Q6UB35_814_AEIDLVCELAK (UniProt Q6UB35) | 0.194 | 0.00519
16 | MYCBP2_O75592_3786_NITINCVK (UniProt O75592) | -0.237 | 0.117
17 | MRPS30_Q9NP92_393_KNICWGTQSK (UniProt Q9NP92) | -0.218 | -0.27
18 | MTREX_P42285_430_KMVEEVFSNAIDCLSDEDK (UniProt P42285) | -0.292 | -0.239
19 | MYD88_Q99836_168_FDAFICYCPSDIQFVQEMIR (UniProt Q99836) | -0.0867 | 0.111
20 | MTHFD1L_Q6UB35_828_AGAFDAVPCYHWSVGGK (UniProt Q6UB35) | 0.125 | -0.12

Reformatted as labelled records: entries from further up.
MSH3_P20585_166_CTDFDDISLLHAK (UniProt P20585)
  probe-labelled cysteine peptide fold change (10 µM) = 0.0231; probe-labelled cysteine peptide fold change (50 µM) = -0.242
MTM1_Q13496_113_GENSYGLDITCK (UniProt Q13496)
  probe-labelled cysteine peptide fold change (10 µM) = -0.045; probe-labelled cysteine peptide fold change (50 µM) = -0.119
MYCBP2_O75592_3786_NITINCVK (UniProt O75592)
  probe-labelled cysteine peptide fold change (10 µM) = -0.237; probe-labelled cysteine peptide fold change (50 µM) = 0.117

(cont.)

Row | Target | probe-labelled cysteine peptide fold change (10 µM) | probe-labelled cysteine peptide fold change (50 µM)
21 | MSH3_P20585_847_QGDYCRPTVQEER (UniProt P20585) | -0.027 | -0.0305
22 | MVP_Q14764_59_HYCTVANPVSR (UniProt Q14764) | 0.00813 | 0.0411
23 | MTRF1L_Q9UGC7_103_LAENEITLCQK (UniProt Q9UGC7) | -0.0422 | 0.0547
24 | MTA2_O94776_106_CSVTLLNETDILSQYLEK (UniProt O94776) | 0.0256 | 0.178
25 | MYD88_Q99836_233_ECDFQTK (UniProt Q99836) | -0.0607 | 0.0123
26 | MTREX_P42285_110_VQSVETVEGCTHEVALPAEEDYLPLKPR (UniProt P42285) | -0.228 | 0.0459
27 | MRPS18A_Q9NVS2_108_ITGLCQEEHR (UniProt Q9NVS2) | -0.0526 | -0.0578
28 | MYCBP2_O75592_3263_QAHPGCGR (UniProt O75592) | 0.168 | 0.105
29 | MRPS12_O15235_64_GVVLCTFTR (UniProt O15235) | -0.149 | 0.0516
30 | MUT_P22033_433_VADPWGGSYMMECLTNDVYDAALK (UniProt P22033) | -0.034 | -0.0693
31 | MTMR6_Q9Y217_156_ICETYPR (UniProt Q9Y217) | -0.0193 | 0.0878
32 | MTMR9_Q96QG7_285_LVEACNDQTHNMDR (UniProt Q96QG7) | 0.103 | 0.195
33 | MRPS31_Q92665_356_HFMELVTCGLSK (UniProt Q92665) | -0.00441 | -0.00908
34 | MYCBP2_O75592_1198_SHAALHILGCLDTLAAMQDLK (UniProt O75592) | -0.148 | -0.0224
35 | MTOR_P42345_1999_NMCEHSNTLVQQAMMVSEELIR (UniProt P42345) | 0.128 | -0.224
36 | MTMR14_Q8NCE2_131_FVCPVILFK (UniProt Q8NCE2) | -0.082 | 0.0503
37 | MTHFD1_P11586_691_YSGLCPHVVVLVATVR (UniProt P11586) | -0.188 | 0.0425
38 | MYH9_P35579_789+790_ITDVIIGFQACCR (UniProt P35579) | 0.117 | 0.187
39 | MRPL45_Q9BRJ2_80_SIHLACTAGIFDAYVPPEGDAR (UniProt Q9BRJ2) | 0.173 | 0.0257
40 | MYCBP2_O75592_3392_MPCLYLQTLAR (UniProt O75592) | 0.0388 | -0.0816
